These are yes or no findings as the source states them, for the method shown. In cells and extracts the contact can be indirect. A yes stands for co-enrichment or nearness to the bait. Other partners may have been found. Blank lines part the entries; values can stand above or below the molecule they belong to.
Biological target: HA-ITM2A (UniProt O43736)
Test: affinity purification with mass spectrometry; HEK293 transfected with HA-ITM2A or empty pcDNA3.1, immunoprecipitated as for co-IP, trypsin digestion, mass spectrometry; proteins of the empty-vector control subtracted

Chains of the proteins cited; added tags and fusions are not shown. Residues count along the entry.
UniProt O43736: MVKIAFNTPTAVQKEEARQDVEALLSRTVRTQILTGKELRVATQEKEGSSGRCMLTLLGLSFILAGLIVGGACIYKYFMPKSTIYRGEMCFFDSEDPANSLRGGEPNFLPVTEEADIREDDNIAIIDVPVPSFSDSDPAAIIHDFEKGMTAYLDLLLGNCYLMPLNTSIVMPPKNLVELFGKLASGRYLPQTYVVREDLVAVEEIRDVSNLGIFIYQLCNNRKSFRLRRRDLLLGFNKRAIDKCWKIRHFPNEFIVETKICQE
UniProt Q9UKM9: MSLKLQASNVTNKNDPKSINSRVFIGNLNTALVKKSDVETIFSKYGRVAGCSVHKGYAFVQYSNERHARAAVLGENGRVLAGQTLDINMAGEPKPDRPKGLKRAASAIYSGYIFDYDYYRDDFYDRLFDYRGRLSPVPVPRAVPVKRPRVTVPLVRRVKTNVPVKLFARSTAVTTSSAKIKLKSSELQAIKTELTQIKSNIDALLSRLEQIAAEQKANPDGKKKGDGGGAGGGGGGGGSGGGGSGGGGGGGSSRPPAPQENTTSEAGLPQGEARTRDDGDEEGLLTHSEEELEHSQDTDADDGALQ
UniProt P42771: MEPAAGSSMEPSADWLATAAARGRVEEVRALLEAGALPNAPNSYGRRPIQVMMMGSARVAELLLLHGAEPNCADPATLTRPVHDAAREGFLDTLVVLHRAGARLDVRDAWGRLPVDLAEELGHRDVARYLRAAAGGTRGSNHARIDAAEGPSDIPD
UniProt P60842: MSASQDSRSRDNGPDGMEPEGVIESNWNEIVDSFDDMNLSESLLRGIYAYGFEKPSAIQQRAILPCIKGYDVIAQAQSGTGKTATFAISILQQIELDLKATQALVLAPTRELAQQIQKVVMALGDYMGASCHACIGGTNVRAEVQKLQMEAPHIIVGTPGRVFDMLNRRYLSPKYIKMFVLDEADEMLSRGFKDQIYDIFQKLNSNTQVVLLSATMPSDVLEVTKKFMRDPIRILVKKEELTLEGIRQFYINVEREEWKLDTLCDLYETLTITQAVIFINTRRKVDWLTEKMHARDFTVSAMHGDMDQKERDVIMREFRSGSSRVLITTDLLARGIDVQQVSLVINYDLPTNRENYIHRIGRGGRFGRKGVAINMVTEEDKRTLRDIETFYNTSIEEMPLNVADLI
UniProt P27824, residues 21-592: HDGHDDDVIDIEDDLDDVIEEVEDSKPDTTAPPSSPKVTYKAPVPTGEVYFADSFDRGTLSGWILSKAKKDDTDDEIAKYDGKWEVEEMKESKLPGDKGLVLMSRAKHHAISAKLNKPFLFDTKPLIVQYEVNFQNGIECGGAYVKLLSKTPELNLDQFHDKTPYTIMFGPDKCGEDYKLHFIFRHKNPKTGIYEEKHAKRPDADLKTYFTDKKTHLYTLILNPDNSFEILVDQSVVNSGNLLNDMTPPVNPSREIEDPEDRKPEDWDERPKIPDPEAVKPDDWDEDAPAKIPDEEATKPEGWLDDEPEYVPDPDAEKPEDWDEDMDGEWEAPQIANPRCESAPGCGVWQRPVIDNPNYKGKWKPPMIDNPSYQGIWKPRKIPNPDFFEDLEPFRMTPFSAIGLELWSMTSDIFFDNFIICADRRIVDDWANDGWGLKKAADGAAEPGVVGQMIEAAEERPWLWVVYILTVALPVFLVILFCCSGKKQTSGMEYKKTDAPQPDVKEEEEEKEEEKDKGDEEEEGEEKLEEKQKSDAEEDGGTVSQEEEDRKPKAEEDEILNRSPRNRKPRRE
UniProt P09012: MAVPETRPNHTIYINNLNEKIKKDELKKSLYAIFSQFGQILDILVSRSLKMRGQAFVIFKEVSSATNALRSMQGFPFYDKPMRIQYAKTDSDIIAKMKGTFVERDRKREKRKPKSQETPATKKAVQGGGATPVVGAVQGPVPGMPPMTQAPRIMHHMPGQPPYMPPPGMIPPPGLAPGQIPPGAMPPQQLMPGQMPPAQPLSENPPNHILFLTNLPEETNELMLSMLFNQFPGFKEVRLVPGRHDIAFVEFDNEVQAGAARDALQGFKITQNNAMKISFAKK
UniProt P19474: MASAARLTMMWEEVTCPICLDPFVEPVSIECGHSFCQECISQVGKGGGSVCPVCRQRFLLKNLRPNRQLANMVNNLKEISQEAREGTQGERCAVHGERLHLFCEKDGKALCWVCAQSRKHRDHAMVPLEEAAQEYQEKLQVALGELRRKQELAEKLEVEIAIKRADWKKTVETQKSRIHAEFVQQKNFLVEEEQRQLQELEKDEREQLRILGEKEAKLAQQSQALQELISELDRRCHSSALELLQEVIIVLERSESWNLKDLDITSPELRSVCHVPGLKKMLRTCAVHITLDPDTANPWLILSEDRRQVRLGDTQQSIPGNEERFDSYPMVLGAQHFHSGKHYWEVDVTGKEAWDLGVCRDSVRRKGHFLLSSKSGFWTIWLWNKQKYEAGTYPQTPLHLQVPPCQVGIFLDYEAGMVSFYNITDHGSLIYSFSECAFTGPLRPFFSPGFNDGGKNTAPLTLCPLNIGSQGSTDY
UniProt P02768, residues 25-609: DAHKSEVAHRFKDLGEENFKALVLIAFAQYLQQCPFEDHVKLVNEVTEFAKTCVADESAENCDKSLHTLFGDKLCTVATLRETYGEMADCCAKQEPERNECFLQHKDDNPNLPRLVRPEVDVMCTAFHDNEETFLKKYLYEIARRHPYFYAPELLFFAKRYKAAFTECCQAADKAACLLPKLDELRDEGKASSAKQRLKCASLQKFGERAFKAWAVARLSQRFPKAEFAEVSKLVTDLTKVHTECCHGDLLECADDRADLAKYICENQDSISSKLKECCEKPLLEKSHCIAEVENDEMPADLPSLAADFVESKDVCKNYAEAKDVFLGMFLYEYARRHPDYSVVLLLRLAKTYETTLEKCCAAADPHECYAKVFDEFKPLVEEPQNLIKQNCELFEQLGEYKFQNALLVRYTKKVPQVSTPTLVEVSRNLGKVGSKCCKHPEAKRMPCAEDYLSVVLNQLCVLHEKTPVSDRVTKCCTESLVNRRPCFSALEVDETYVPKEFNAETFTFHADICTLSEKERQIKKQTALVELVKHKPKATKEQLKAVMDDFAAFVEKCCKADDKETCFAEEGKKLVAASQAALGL
UniProt O95816: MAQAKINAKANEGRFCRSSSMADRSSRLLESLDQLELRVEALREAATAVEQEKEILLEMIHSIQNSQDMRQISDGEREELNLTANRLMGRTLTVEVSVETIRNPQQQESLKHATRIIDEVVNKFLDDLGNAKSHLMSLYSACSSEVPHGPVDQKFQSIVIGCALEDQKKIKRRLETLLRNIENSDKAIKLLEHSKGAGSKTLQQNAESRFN
UniProt P05121, residues 24-402: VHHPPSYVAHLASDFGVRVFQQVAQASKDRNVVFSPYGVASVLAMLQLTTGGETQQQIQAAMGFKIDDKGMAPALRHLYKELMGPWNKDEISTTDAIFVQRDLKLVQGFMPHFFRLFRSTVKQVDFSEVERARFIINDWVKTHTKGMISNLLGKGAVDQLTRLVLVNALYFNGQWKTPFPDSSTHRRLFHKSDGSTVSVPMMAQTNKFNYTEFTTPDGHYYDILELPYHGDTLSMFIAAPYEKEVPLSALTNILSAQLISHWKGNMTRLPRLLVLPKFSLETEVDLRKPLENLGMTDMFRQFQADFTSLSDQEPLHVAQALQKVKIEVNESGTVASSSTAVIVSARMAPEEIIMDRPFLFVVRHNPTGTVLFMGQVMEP
UniProt O43242: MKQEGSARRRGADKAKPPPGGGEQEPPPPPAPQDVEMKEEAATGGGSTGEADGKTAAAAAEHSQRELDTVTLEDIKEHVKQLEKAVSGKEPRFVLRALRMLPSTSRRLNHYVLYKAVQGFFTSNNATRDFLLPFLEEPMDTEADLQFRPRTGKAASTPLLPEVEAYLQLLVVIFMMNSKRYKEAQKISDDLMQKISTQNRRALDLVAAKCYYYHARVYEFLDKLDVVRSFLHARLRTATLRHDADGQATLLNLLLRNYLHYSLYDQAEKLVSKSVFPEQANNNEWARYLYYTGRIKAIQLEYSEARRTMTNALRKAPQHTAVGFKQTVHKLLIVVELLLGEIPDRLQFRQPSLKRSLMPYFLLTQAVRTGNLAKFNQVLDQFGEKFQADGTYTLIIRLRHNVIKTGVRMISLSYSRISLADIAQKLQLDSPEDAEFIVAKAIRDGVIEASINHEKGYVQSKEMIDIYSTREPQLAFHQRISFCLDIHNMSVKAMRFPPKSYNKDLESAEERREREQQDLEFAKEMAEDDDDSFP
UniProt P63104: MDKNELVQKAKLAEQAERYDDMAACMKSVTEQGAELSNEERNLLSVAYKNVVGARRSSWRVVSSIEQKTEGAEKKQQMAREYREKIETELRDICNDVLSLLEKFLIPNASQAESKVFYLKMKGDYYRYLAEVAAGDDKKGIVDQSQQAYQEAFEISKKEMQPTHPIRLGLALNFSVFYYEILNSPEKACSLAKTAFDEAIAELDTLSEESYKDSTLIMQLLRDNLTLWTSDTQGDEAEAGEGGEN
UniProt O60884: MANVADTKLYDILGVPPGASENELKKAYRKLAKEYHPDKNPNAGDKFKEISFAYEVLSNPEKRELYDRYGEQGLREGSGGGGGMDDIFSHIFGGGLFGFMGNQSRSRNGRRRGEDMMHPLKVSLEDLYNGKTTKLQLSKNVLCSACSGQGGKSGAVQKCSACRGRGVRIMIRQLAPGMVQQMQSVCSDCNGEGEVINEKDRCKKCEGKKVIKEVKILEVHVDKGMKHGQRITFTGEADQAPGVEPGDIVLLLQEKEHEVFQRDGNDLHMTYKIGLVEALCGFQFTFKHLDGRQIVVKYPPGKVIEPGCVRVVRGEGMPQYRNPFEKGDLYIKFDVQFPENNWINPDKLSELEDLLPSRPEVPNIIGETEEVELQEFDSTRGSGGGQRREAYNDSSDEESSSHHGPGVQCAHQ
UniProt P26641: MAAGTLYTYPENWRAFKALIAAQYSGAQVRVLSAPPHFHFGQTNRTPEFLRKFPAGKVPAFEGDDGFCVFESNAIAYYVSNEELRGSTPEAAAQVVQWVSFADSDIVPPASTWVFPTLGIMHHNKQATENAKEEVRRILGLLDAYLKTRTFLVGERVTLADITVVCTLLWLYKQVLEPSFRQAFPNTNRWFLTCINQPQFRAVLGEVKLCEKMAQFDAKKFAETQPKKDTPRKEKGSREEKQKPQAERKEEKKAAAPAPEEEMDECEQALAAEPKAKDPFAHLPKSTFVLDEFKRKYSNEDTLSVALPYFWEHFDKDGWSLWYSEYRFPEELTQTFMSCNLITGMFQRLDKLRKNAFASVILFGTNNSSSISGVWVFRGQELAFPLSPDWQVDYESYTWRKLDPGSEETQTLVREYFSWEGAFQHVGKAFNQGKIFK
UniProt P06748: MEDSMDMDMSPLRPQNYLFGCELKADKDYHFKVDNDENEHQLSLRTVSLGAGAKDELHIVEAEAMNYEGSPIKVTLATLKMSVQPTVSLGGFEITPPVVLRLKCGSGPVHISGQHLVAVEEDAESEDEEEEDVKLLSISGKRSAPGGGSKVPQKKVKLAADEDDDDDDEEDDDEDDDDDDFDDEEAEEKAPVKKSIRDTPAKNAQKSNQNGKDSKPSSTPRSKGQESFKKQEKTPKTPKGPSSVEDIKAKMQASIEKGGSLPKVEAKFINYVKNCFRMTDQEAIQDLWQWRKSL
UniProt P55060: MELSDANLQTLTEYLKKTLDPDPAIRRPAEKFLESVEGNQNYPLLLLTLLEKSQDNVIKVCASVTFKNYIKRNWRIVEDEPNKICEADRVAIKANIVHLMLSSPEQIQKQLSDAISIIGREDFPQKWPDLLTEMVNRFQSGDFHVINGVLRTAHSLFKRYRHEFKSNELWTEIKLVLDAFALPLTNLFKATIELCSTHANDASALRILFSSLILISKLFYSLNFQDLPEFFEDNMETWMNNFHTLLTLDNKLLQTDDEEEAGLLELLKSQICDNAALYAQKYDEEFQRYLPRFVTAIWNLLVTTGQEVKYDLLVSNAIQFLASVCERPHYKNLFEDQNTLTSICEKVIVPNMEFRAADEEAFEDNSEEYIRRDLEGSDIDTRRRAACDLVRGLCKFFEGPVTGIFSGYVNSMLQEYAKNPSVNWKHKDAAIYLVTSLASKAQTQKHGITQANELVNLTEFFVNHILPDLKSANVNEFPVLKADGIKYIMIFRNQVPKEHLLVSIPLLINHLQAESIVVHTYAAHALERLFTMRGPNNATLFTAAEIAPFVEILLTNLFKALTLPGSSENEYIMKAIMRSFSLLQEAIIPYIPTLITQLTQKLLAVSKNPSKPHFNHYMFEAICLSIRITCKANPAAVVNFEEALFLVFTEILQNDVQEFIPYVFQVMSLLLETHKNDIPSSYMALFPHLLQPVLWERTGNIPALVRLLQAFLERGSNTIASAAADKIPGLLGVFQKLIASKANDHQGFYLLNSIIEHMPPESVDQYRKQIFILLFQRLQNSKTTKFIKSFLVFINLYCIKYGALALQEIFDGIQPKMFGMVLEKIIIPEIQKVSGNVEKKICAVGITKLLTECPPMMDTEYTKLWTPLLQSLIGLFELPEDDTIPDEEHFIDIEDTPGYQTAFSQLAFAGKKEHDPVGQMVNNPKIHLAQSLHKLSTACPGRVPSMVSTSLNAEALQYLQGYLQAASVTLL

binding: binds
Molecule: RALY (from UniProt Q9UKM9 1-306)

binding: binds
Molecule: CDKN2A (from UniProt P42771 1-156)

binding: binds
Molecule: EIF4A1 (from UniProt P60842 1-406)

binding: binds
Molecule: GP96 (from UniProt P14625 22-803)

binding: binds
Molecule: CANX (from UniProt P27824 21-592)

binding: binds
Molecule: SNRPA (from UniProt P09012 1-282)

binding: binds
Molecule: TRIM21 (from UniProt P19474 1-475)

binding: binds
Molecule: ALB (from UniProt P02768 25-609)

binding: binds
Molecule: SLC3A2 (from UniProt P08195 1-529)

binding: binds
Molecule: BAG2 (from UniProt O95816 1-211)

binding: binds
Molecule: PAI-1 (from UniProt P05121 24-402)

binding: binds
Molecule: PSMD3 (from UniProt O43242 1-534)

binding: binds
Molecule: DNAJA1 (from UniProt P31689 1-397)

binding: binds
Molecule: HSPA5 (from UniProt P11021 19-654)

binding: binds
Molecule: YWHAZ (from UniProt P63104 1-245)

binding: binds
Molecule: FLNA (from UniProt P21333 1-2647)

binding: binds
Molecule: DNAJA2 (from UniProt O60884 1-412)

binding: binds
Molecule: EEF1G (from UniProt P26641 1-437)

binding: binds
Molecule: FLG (from UniProt P20930 1-4061)

binding: binds
Molecule: NPM1 (from UniProt P06748 1-294)

binding: binds
Molecule: CSE1L (from UniProt P55060 1-971)

binding: binds
Molecule: FLNC (from UniProt Q14315 1-2725)

binding: binds
B1: C1orf57 (protein, UniProt Q9BSD7 1-190)
chain: MARHVFLTGPPGVGKTTLIHKASEVLKSSGVPVDGFYTEEVRQGGRRIGFDVVTLSGTRGPLSRVGLEPPPGKRECRVGQYVVDLTSFEQLALPVLRNADCSSGPGQRVCVIDEIGKMELFSQLFIQAVRQTLSTPGTIILGTIPVPKGKPLALVEEIRNRKDVKVFNVTKENRNHLLPDIVTCVQSSRK

binding: binds
B2: ATXN2L (protein, UniProt Q8WWM7 1-1075)
chain: MLKPQPLQQPSQPQQPPPTQQAVARRPPGGTSPPNGGLPGPLATSAAPPGPPAAASPCLGPVAAAGSGLRRGAEGILAPQPPPPQQHQERPGAAAIGSARGQSTGKGPPQSPVFEGVYNNSRMLHFLTAVVGSTCDVKVKNGTTYEGIFKTLSSKFELAVDAVHRKASEPAGGPRREDIVDTMVFKPSDVMLVHFRNVDFNYATKDKFTDSAIAMNSKVNGEHKEKVLQRWEGGDSNSDDYDLESDMSNGWDPNEMFKFNEENYGVKTTYDSSLSSYTVPLEKDNSEEFRQRELRAAQLAREIESSPQYRLRIAMENDDGRTEEEKHSAVQRQGSGRESPSLASREGKYIPLPQRVREGPRGGVRCSSSRGGRPGLSSLPPRGPHHLDNSSPGPGSEARGINGGPSRMSPKAQRPLRGAKTLSSPSNRPSGETSVPPPPAVGRMYPPRSPKSAAPAPISASCPEPPIGSAVPTSSASIPVTSSVSDPGVGSISPASPKISLAPTDVKELSTKEPGRTLEPQELARIAGKVPGLQNEQKRFQLEELRKFGAQFKLQPSSSPENSLDPFPPRILKEEPKGKEKEVDGLLTSEPMGSPVSSKTESVSDKEDKPPLAPSGGTEGPEQPPPPCPSQTGSPPVGLIKGEDKDEGPVAEQVKKSTLNPNAKEFNPTKPLLSVNKSTSTPTSPGPRTHSTPSIPVLTAGQSGLYSPQYISYIPQIHMGPAVQAPQMYPYPVSNSVPGQQGKYRGAKGSLPPQRSDQHQPASAPPMMQAAAAAGPPLVAATPYSSYIPYNPQQFPGQPAMMQPMAHYPSQPVFAPMLQSNPRMLTSGSHPQAIVSSSTPQYPSAEQPTPQALYATVHQSYPHHATQLHAHQPQPATTPTGSQPQSQHAAPSPVQHQAGQAPHLGSGQPQQNLYHPGALTGTPPSLPPGPSAQSPQSSFPQPAAVYAIHHQQLPHGFTNMAHVTQAHVQTGITAAPPPHPGAPHPPQVMLLHPPQSHGGPPQGAVPQSGVPALSASTPSPYPYIGHPQGEQPGQAPGFPGGADDRIREFSLAGGIWHGRAEGLQVGQDARVLGGE

binding: binds
B3: CISD2 (protein, UniProt Q8N5K1 1-135)
chain: MVLESVARIVKVQLPAYLKRLPVPESITGFARLTVSEWLRLLPFLGVLALLGYLAVRPFLPKKKQQKDSLINLKIQKENPKVVNEINIEDLCLTKAAYCRCWRSKTFPACDGSHNKHNELTGDNVGPLILKKKEV

binding: binds
B4: ADAR (protein, UniProt P55265 1-1226)
chain: MNPRQGYSLSGYYTHPFQGYEHRQLRYQQPGPGSSPSSFLLKQIEFLKGQLPEAPVIGKQTPSLPPSLPGLRPRFPVLLASSTRGRQVDIRGVPRGVHLRSQGLQRGFQHPSPRGRSLPQRGVDCLSSHFQELSIYQDQEQRILKFLEELGEGKATTAHDLSGKLGTPKKEINRVLYSLAKKGKLQKEAGTPPLWKIAVSTQAWNQHSGVVRPDGHSQGAPNSDPSLEPEDRNSTSVSEDLLEPFIAVSAQAWNQHSGVVRPDSHSQGSPNSDPGLEPEDSNSTSALEDPLEFLDMAEIKEKICDYLFNVSDSSALNLAKNIGLTKARDINAVLIDMERQGDVYRQGTTPPIWHLTDKKRERMQIKRNTNSVPETAPAAIPETKRNAEFLTCNIPTSNASNNMVTTEKVENGQEPVIKLENRQEARPEPARLKPPVHYNGPSKAGYVDFENGQWATDDIPDDLNSIRAAPGEFRAIMEMPSFYSHGLPRCSPYKKLTECQLKNPISGLLEYAQFASQTCEFNMIEQSGPPHEPRFKFQVVINGREFPPAEAGSKKVAKQDAAMKAMTILLEEAKAKDSGKSEESSHYSTEKESEKTAESQTPTPSATSFFSGKSPVTTLLECMHKLGNSCEFRLLSKEGPAHEPKFQYCVAVGAQTFPSVSAPSKKVAKQMAAEEAMKALHGEATNSMASDNQPEGMISESLDNLESMMPNKVRKIGELVRYLNTNPVGGLLEYARSHGFAAEFKLVDQSGPPHEPKFVYQAKVGGRWFPAVCAHSKKQGKQEAADAALRVLIGENEKAERMGFTEVTPVTGASLRRTMLLLSRSPEAQPKTLPLTGSTFHDQIAMLSHRCFNTLTNSFQPSLLGRKILAAIIMKKDSEDMGVVVSLGTGNRCVKGDSLSLKGETVNDCHAEIISRRGFIRFLYSELMKYNSQTAKDSIFEPAKGGEKLQIKKTVSFHLYISTAPCGDGALFDKSCSDRAMESTESRHYPVFENPKQGKLRTKVENGEGTIPVESSDIVPTWDGIRLGERLRTMSCSDKILRWNVLGLQGALLTHFLQPIYLKSVTLGYLFSQGHLTRAICCRVTRDGSAFEDGLRHPFIVNHPKVGRVSIYDSKRQSGKTKETSVNWCLADGYDLEILDGTRGTVDGPRNELSRVSKKNIFLLFKKLCSFRYRRDLLRLSYGEAKKAARDYETAKNYFKKGLKDMGYGNWISKPQEEKNFYLCPV

binding: binds
B5: ABCF2 (protein, UniProt Q9UG63 1-623)
chain: MPSDLAKKKAAKKKEAAKARQRPRKGHEENGDVVTEPQVAEKNEANGRETTEVDLLTKELEDFEMKKAAARAVTGVLASHPNSTDVHIINLSLTFHGQELLSDTKLELNSGRRYGLIGLNGIGKSMLLSAIGKREVPIPEHIDIYHLTREMPPSDKTPLHCVMEVDTERAMLEKEAERLAHEDAECEKLMELYERLEELDADKAEMRASRILHGLGFTPAMQRKKLKDFSGGWRMRVALARALFIRPFMLLLDEPTNHLDLDACVWLEEELKTFKRILVLVSHSQDFLNGVCTNIIHMHNKKLKYYTGNYDQYVKTRLELEENQMKRFHWEQDQIAHMKNYIARFGHGSAKLARQAQSKEKTLQKMMASGLTERVVSDKTLSFYFPPCGKIPPPVIMVQNVSFKYTKDGPCIYNNLEFGIDLDTRVALVGPNGAGKSTLLKLLTGELLPTDGMIRKHSHVKIGRYHQHLQEQLDLDLSPLEYMMKCYPEIKEKEEMRKIIGRYGLTGKQQVSPIRNLSDGQKCRVCLAWLAWQNPHMLFLDEPTNHLDIETIDALADAINEFEGGMMLVSHDFRLIQQVAQEIWVCEKQTITKWPGDILAYKEHLKSKLVDEEPQLTKRTHNV

Reference: paper PMC8394137
